Experimental data: PubChem BioAssay AID1347076 (National Center for Advancing Translational Sciences (NCATS), 2019)
In all, about 400,000 compounds went through this assay and about 13,000 (3.2%) were called active. Inconclusive results, whose numbers are uncertain, are shown with a selection of clear calls. Calls come from the whole dose curve; as a rule, active = well fitted cell-killing curve with a large enough effect; inconclusive = small, poorly fitted or top-dose-only effect, or effect the other way; inactive = flat fitted curve, though single readings scatter. A potency beside an inconclusive call is a rough fit, not a confirmed value.

experiment: qHTS assay for MDR1-selective chemotherapeutics: Primary screen using the drug-selected MDR subline cells KB-V1; settings: KB-V1 MDR cells viability, CellTiter-Glo, 72 h; activity change, negative = cytotoxicity: at 46.1 µM (top of the series); note: nearly all actives have a fitted effect of over 60% in size
Outline: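 Compound-treated KB-V1 multidrug-resistant cells, 72 h, 37 degrees C; viability by CellTiter-Glo. Fitted qHTS curves give the values.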
% is set by controls: 0 for no effect and ±100 for the full control effect; potency is the fitted concentration of half-maximal effect.

Question: For COc1ccc(-n2ccnc2SCC(=O)Nc2cc(C)on2)cc1, which Potency is on record?
Answer: inconclusive: 29.1 µM [cytotoxic, single point]

Question: With Cc1cccc(NC(=O)c2ccc([N+](=O)[O-])o2)n1 as the compound, how does the Potency read?
Answer: inconclusive: 29.1 µM [cytotoxic, single point]

Question: With CCOc1ccccc1C(=O)NC(C)c1ccc(-n2ccnc2)cc1 (centres undefined) as the compound, how does the Potency read?
Answer: inconclusive: 13 µM [cytotoxic, partial curve]

Question: For COc1cc(CNc2nc3ccccc3n2Cc2ccccc2)ccc1O, which “activity change, negative = cytotoxicity” value is on record?
Answer: inactive: -27.2%

Question: With COc1ccc(C(=O)NC(=S)N2CCCCC2)cc1 as the compound, how does the “activity change, negative = cytotoxicity” value read?
Answer: inactive: -0.227%

Question: Which “activity change, negative = cytotoxicity” value does the source give for COC(=O)CNC(=O)COC(=O)c1ccc(Cl)nc1 here?
Answer: inactive: 8.63%

Question: With O=C(CCC1N=C2c3ccccc3N=C(SCC(=O)Nc3ccccc3F)N2C1=O)NCc1ccco1 (centres undefined) as the compound, how does the “activity change, negative = cytotoxicity” value read?
Answer: inactive: -0.495%

Question: Which Potency does the source give for CCn1c(=O)c(C(=O)CN(C)Cc2ccc(F)cc2)c(N)n(Cc2ccccc2)c1=O here?
Answer: inconclusive: 14.6 µM [cytotoxic, partial curve]

Question: For CCCCN1CC(=O)N2[C@H](c3ccc(Cl)cc3)[C@@H]3C(=O)N(CC)C(=O)[C@@H]3[C@]2(C)C1=O, which “activity change, negative = cytotoxicity” value is on record?
Answer: inactive: -1.5%

Question: With Cc1cccc(NC(=O)CCCn2cc([N+](=O)[O-])cn2)n1 as the compound, how does the Potency read?
Answer: inconclusive: 23.1 µM [rising, partial curve, poor fit]

Question: With O=C(CN1C(=O)/C(=C/c2ccccc2F)SC1=S)NC1C=CS(=O)(=O)C1 (centres undefined) as the compound, how does the Potency read?
Answer: inconclusive: 16.4 µM [rising, single point]

Question: Which Potency does the source give for CCOC(=O)c1cc(CC)sc1N1C(=O)CC(Sc2ncccc2C(=O)O)C1=O (centres undefined) here?
Answer: inconclusive: 13 µM [rising, partial curve]

Question: Which “activity change, negative = cytotoxicity” value does the source give for COc1ccc(C(=O)NCC(c2cccs2)N2CCOCC2)cc1OC (centres undefined) here?
Answer: inactive: -0.201%

Question: Which Potency does the source give for O=C1C(NS(=O)(=O)c2cccs2)=C(N2CCN(Cc3ccccc3)CC2)C(=O)c2ccccc21 here?
Answer: active: 23.1 µM

Question: For Cc1ccc(S(=O)(=O)NCc2csc(C)n2)c(C)c1, which “activity change, negative = cytotoxicity” value is on record?
Answer: inactive: 10.2%

Question: For CCOC(=O)c1c(NC(=O)C2C3CCC(O3)C2C(=O)O)sc(C)c1-c1ccc(F)cc1 (centres undefined), which Potency is on record?
Answer: inconclusive: 29.1 µM [rising, single point]

Question: For O=C(NC12CC3CC(CC(C3)C1)C2)c1ccc(-c2cccc(Cl)c2)o1, which Potency is on record?
Answer: inconclusive: 16.4 µM [cytotoxic, single point]

Question: With Cc1cccc(-c2cccc(NC(=O)C3CCCN(C(=O)c4cccnc4)C3)c2)c1 (centres undefined) as the compound, how does the Potency read?
Answer: inconclusive: 8.2 µM [rising, partial curve, poor fit]

Question: Which Potency does the source give for COc1ccccc1Cc1c(-c2ccc(OC)c(OC)c2)nc2ccc(Cl)cn12 here?
Answer: inconclusive: 29.1 µM [cytotoxic, single point]

Question: Which Potency does the source give for CCc1ccc(Nc2n[n+](-c3ccccc3)c(-c3c(Cl)cccc3Cl)s2)cc1 here?
Answer: inconclusive: 18.4 µM [cytotoxic, single point]

Question: For CCCSc1nc2c3c(sc2c(=O)[nH]1)CC(C)(CC)OC3 (centres undefined), which Potency is on record?
Answer: inconclusive: 29.1 µM [rising, single point]

Question: For Cc1[nH]c2ccccc2c1C(c1ccccn1)N1CCC(C)CC1 (centres undefined), which Potency is on record?
Answer: inconclusive: 18.4 µM [cytotoxic, single point]

Question: For CS(=O)(=O)N1CCC(C(=O)NCc2ccc(F)cc2Cl)CC1, which activity change, negative = cytotoxicity is on record?
Answer: inconclusive: -10.8%

Question: With CC1CCc2c(sc(NC(=O)Cn3nnc(-c4ccc(C(F)(F)F)cc4)n3)c2C#N)C1 (centres undefined) as the compound, how does the Potency read?
Answer: inconclusive: 25.9 µM [rising, single point]

Question: For CN(CCc1ccccc1)C(=O)c1ccc(NC(=O)Cc2cccc(NC(=O)C3CCN(C(=O)c4ccccc4)CC3)c2)cc1, which “activity change, negative = cytotoxicity” value is on record?
Answer: inactive: 0%

Question: Which “activity change, negative = cytotoxicity” value does the source give for CCN(CC)c1ccc(/C=N/OCC(=O)N2CCCc3ccccc32)cc1 here?
Answer: inactive: -7.31%

Question: Which Potency does the source give for Cc1cccc(-n2c(SCC(N)=O)nc3c(c2=O)C2(CCCC2)Cc2ccccc2-3)c1 here?
Answer: active: 3.26 µM

Question: For CC(=O)Nc1nonc1-c1nc2ccccc2n1N(C(C)=O)C(C)=O, which Potency is on record?
Answer: inconclusive: 23.1 µM [cytotoxic, single point]

Question: With O=C(N/N=C/c1cccc(O)c1)c1ccc2c(c1)OCCO2 as the compound, how does the “activity change, negative = cytotoxicity” value read?
Answer: inactive: 18.1%

Question: With CC(Oc1cc(F)ccc1[N+](=O)[O-])C(=O)N(C)CC(=O)Nc1ccccc1C(F)(F)F (centres undefined) as the compound, how does the Potency read?
Answer: inconclusive: 16.4 µM [cytotoxic, partial curve, poor fit]

Question: Which “activity change, negative = cytotoxicity” value does the source give for CS(=O)(=O)N(CC(=O)NCc1ccco1)c1ccc2c(c1)OCO2 here?
Answer: inactive: -9.81%

Question: With COc1cccc(CNC(=O)C(=O)NCCc2ccc(OC)c(OC)c2)c1 as the compound, how does the Potency read?
Answer: inconclusive: 16.4 µM [cytotoxic, single point]

Question: For CC(C)c1ccc(CC(=O)N2CCC2(C)C(=O)Nc2ccc3c(c2)OCO3)cc1 (centres undefined), which Potency is on record?
Answer: active: 20.6 µM

Question: For Cc1[nH]c2ccccc2c1/C=N/NC(=O)c1ccccc1, which “activity change, negative = cytotoxicity” value is on record?
Answer: inactive: -3.45%

Question: Which Potency does the source give for CCc1ccc(NC(=O)C(C)Nc2ccc(S(=O)(=O)NC(C)=O)cc2)cc1 (centres undefined) here?
Answer: inconclusive: 18.4 µM [rising, partial curve, poor fit]

Question: Which Potency does the source give for CC1Cc2ccccc2N1C(=O)COC(=O)c1c2c(nc3ccccc13)CCCCC2 (centres undefined) here?
Answer: active: 9.2 µM

Question: With CCOC(=O)c1sc2ncnc(Nc3cccc(C(=O)O)c3)c2c1C as the compound, how does the Potency read?
Answer: inconclusive: 13 µM [rising, partial curve]

Question: With CC(=O)Nc1c(Cl)cc2c(c1Cl)Cc1cc(N)ccc1-2 as the compound, how does the Potency read?
Answer: inconclusive: 25.9 µM [cytotoxic, single point]

Question: For C(=C\c1ccccc1)/CN1CCN(Cc2ccc3c(c2)OCO3)CC1, which Potency is on record?
Answer: inconclusive: 11.6 µM [cytotoxic, partial curve, poor fit]

Question: With CC(=O)NC(c1ccccc1)c1cc([N+](=O)[O-])c2cccnc2c1O (centres undefined) as the compound, how does the Potency read?
Answer: inconclusive: 5.17 µM [cytotoxic, full curve]

Question: With Cc1ccc(C)c(NC(=S)Nc2cccc3cnccc23)c1 as the compound, how does the Potency read?
Answer: inconclusive: 20.6 µM [cytotoxic, single point]

Question: With O=C(N/C=C/c1ccco1)NCc1ccccc1 as the compound, how does the Potency read?
Answer: inconclusive: 1.84 µM [cytotoxic, partial curve, poor fit]

Question: Which “activity change, negative = cytotoxicity” value does the source give for C=CC[C@@H](CC(=O)N(CCO)Cc1ccccc1)C(=O)N[C@H](COC(=O)[C@@H](CC=C)CC(=O)OC(C)(C)C)Cc1c[nH]c2ccccc12 here?
Answer: inactive: -29.6%

Question: For CN(Cc1ccccc1)S(=O)(=O)c1ccc(Cl)c(C(=O)NCc2ccc3c(c2)OCO3)c1, which Potency is on record?
Answer: active: 11.6 µM
